The exact form of at least one protein or probe is not confirmed. Where cells or extracts were used, other partners may take part. Weaker means in comparison with the reference protein, sequence or condition of that experiment. At least one verdict rests on a figure or table, not on a statement of the authors.
Target: c-Met (UniProt P08581)
Test: flow cytometry on cells
Conditions: protein on the cell surface

The chains behind the UniProt entries cited, without tags or fusion partners. Residues count along the entry.
UniProt P08581, 25-1390: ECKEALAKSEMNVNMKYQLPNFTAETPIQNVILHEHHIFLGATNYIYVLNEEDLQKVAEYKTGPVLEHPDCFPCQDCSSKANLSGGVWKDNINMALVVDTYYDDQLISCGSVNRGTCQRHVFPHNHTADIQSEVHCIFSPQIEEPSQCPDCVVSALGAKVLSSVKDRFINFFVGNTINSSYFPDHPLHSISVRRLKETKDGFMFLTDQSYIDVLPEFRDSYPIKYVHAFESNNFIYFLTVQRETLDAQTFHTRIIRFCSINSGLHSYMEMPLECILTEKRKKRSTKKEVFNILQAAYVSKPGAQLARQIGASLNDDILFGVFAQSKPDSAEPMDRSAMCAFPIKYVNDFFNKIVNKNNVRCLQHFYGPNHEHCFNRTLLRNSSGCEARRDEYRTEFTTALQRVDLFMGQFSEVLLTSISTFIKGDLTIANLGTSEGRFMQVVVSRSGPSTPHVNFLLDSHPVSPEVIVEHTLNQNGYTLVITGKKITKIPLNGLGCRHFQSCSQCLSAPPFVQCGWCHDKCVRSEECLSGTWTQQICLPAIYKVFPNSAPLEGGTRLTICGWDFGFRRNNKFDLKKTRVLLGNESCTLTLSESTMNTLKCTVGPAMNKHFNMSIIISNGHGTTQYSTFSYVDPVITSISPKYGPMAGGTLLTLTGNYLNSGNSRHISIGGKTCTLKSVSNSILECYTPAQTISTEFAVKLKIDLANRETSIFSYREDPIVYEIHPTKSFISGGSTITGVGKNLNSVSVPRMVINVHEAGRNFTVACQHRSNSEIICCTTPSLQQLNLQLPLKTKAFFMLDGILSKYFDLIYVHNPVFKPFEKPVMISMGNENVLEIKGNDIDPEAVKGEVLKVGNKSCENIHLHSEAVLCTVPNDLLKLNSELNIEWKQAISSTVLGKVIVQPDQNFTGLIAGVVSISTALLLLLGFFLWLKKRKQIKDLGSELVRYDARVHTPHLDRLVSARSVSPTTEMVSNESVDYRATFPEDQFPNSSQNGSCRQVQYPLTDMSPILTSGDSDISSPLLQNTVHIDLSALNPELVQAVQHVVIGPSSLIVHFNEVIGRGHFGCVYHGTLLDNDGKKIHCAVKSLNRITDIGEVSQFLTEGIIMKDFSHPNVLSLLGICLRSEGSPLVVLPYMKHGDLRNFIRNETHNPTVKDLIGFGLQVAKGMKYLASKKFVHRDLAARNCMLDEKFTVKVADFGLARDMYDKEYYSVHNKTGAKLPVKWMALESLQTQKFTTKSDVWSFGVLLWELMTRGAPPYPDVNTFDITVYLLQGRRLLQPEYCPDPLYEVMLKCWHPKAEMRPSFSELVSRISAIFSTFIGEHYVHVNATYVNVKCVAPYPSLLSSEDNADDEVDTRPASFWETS

| Sequence | binding result (A549, signal similar to NT-Ch2-Apt on c-Met knockdown cells, 5' and 3' cholesterol on ASO strand, label: FAM (5' of DNA arm strand 1)) | binding result (A549 (high c-Met) versus HeLa (low c-Met), label: 5'-FAM, single-stranded DNA) |
| --- | --- | --- |
| ACCTGCCATGCTCGGTCGGGGTGGGTGGGTTGCGTTCAGA / GGTGTCACAGGCGGGACCCCCGACCGA / GTCCCGCCTGTGACACCTCCCGCCTGTGACATGCATTTTTTTTCCCGCCTGTGACATGCATTGTCCCGCCTGTGACACC / CAACCCACCCGGTGTCACAGGCGGGAC [NT-Ch2-Lib (library-strand nanotweezer)] | binds more weakly | – |
| TGGATGGTAGCTCGGTCGGGGTGGGTGGGTTGGCAAGTCT [FAM-c-Met aptamer] | – | binds |
